PubChem BioAssay AID1259425 | University of Nebraska Medical Center – 2018
The deposit covers about 14,000 reagents; shown is a part drawn at random. Not all columns of the deposit are shown. Reagent sequences are not shown. Not given: the time to read-out.

Assay: 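Compare each knockdown with KSR1 silencing using changes in marker transcripts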 (primary screen)
Cells: HCT116 human colon cancer cells
Reagents: siRNA pool against human genes, 50 nM siRNA
Measured: 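mRNA of six signature genes measured together by branched-DNA assay after 50 nM siRNA pool, blank removed, divided by geometric mean of two housekeeping genes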
Direction: BNIP3L mRNA: higher = more BNIP3L transcript after knockdown; NDRG1 mRNA: higher = more NDRG1 transcript after knockdown; BNIP3 mRNA: higher = more BNIP3 transcript after knockdown

gene symbol	BNIP3L mRNA, set 1	NDRG1 mRNA, set 1	BNIP3 mRNA, set 1
PRPH	0.0576	0.142	0.259
RPS3A	0.137	0.314	0.416
B4GALT3	0.0842	0.366	0.343
MYO15A	0.0522	0.187	0.239
NR4A2	0.123	0.115	0.208
TUT1	0.108	0.421	0.335
AFDN	0.0914	0.161	0.369
DDX10	0.173	0.136	0.401
SHQ1	0.0737	0.0837	0.213
ANP32B	0.0678	0.189	0.321
SLC16A2	0.152	0.33	0.537
EXOC5	0.105	0.216	0.256
SLC25A10	0.0672	0.0581	0.259
GPR12	0.0683	0.193	0.224
NNAT	0.106	0.187	0.362
TUG1	0.589	2.94	2.53
YBX3	0.146	0.123	0.315
FADS2	0.184	0.134	0.284
ELAC1	0.0358	0.118	0.174
STAP1	0.0449	0.177	0.286
IGDCC3	0.458	0.654	0.963
GP5	0.162	0.296	0.516
CHKB	0.221	0.628	0.382
FXR2	0.0955	0.545	0.266
TXLNGY	0.122	0.138	0.191
FBN1	0.0843	0.178	0.23
CHD5	0.172	0.57	0.494
FCRLA	0.0893	0.155	0.304
IRAK3	0.175	0.122	0.429
MYCNOS	0.107	0.125	0.234
SLC4A9	0.218	0.532	0.343
EVI5L	0.139	0.273	0.0982
CELF2	0.15	0.244	0.322
CPA4	0.126	0.395	0.363
BCL10	0.061	0.392	0.26
GPR174	0.0814	0.558	0.414
IL1RN	0.08	0.0973	0.205
KDM6A	0.144	0.279	0.307
TRMT2A	0.135	0.684	0.344
SRD5A3	0.129	0.183	0.231
CDIPT	0.19	0.242	0.43
GREB1	0.0914	0.0863	0.235
GML	0.124	0.194	0.354
RBAK	0.185	0.136	0.409
PYCR3	0.0857	0.131	0.303
WARS2	0.101	0.209	0.22
MEGF11	0.0892	0.512	0.436
SLC40A1	0.111	0.239	0.24
COPG1	0.191	0.233	0.278
WNT1	0.0667	0.135	0.215

Records above whose target name begins with C or c (6):
gene symbol	BNIP3L mRNA, set 1	NDRG1 mRNA, set 1	BNIP3 mRNA, set 1
CHKB	0.221	0.628	0.382
CHD5	0.172	0.57	0.494
CELF2	0.15	0.244	0.322
CPA4	0.126	0.395	0.363
CDIPT	0.19	0.242	0.43
COPG1	0.191	0.233	0.278
